Values from PubChem BioAssay AID504808 (Drosophila RNAi Screening Center, 2011).

Test: 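Genes whose loss lifts activity of an E2F-responsive reporter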 (primary screen)
Cells: Drosophila S2 cells
Knock-down reagent: long dsRNA against Drosophila genes
Measured: 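Dual luciferase plate measurements; E2F-specific signal taken as firefly over Renilla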
Scale: E2F firefly: higher = more E2F reporter activity; Renilla normaliser: higher = more normaliser reporter signal
Call rule: 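a knock-down counted as active when the firefly/Renilla E2F signal rose above 50%, a threshold chosen arbitrarily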
In all, the deposit lists about 21,000 reagents; shown is an unselected part of those with a known target gene and a result. Over the whole deposit, 18 (0.084%) were called active. 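Raw counts without plate normalisation, one of two replicates; the ratio scores behind the calls were not deposited.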 A number with no mark means an inactive call. A plus sign joins genes that one reagent is predicted to hit. Not given: the amount of reagent, the time to read-out.

Gene	dsRNA	E2F firefly, rep 1	Renilla normaliser, rep 1
Ebp (GeneID 38009)	DRSC04048	92100	3045
sqh (GeneID 31554)	DRSC18837	8180	704
AMPdeam (GeneID 32352)	DRSC18996	83557	3017
AMPdeam (GeneID 32352)	DRSC19366	6922	792
AMPdeam (GeneID 32352)	DRSC19368	1.41e5	5192
AMPdeam (GeneID 32352)	DRSC19727	1.67e5	6577
CG17698 (GeneID 4379919)	DRSC11907	1.41e5	7499
Cul1 (GeneID 35742)	DRSC07645	2727	230
CG31710 (GeneID 318907)	DRSC01089	1.31e5	6078
Acn (GeneID 35173)	DRSC02062	82587	3693
CG9257 (GeneID 35375)	DRSC03173	1.01e5	4297
CG1532 (GeneID 33076)	DRSC20516	1.51e5	5122
Ote (GeneID 37090)	DRSC07498	70839	3456
Pp1alpha-96A (GeneID 42922)	DRSC16795	1.13e5	5712
mod (GeneID 43764)	DRSC16999	1947	916
Obp47b + CG7741	DRSC06330	1.09e5	4328
CG13806 (GeneID 38292)	DRSC08341	93348	4142
l(3)04053 (GeneID 46158)	DRSC11640	69265	3430
Zw10 (GeneID 47874)	DRSC18793	1794	992
hd (GeneID 40642)	DRSC12316	1.69e5	6249
Seipin (GeneID 31245)	DRSC18654	1.24e5	5510
ND-PDSW (GeneID 44228)	DRSC00715	77418	3762
Spn31A (GeneID 34339)	DRSC02780	1.55e5	5585
CG14565 (GeneID 40423)	DRSC11726	1.29e5	6942
CG3734 (GeneID 42318)	DRSC15509	1.39e5	6273
CG9427 (GeneID 41164)	DRSC16490	70757	3139
GABA-B-R3 (GeneID 33248)	DRSC00561	1.68e5	6166
CG33272 (GeneID 2768958)	DRSC09116	1.02e5	4590
CG32548 (GeneID 32826)	DRSC19627	1.72e5	7511
CG32548 (GeneID 32826)	DRSC19982	1.49e5	5273
CG10931 (GeneID 37024)	DRSC06015	1.58e5	5414
CG16964 (GeneID 34605)	DRSC02546	89487	3778
CG13965 (GeneID 35280)	DRSC02307	1.00e5	4134
bisc (GeneID 37443)	DRSC04083	76982	3446
Hsp26 (GeneID 39075)	DRSC11189	73644	3968
CG6244 (GeneID 2768962)	DRSC10609	1.63e5	7359
Phae1 (GeneID 34637)	DRSC02554	1.06e5	3978

Just “Renilla normaliser, rep 1” (8 entries from above):
CG3734 (GeneID 42318) [DRSC15509]	6273
CG9427 (GeneID 41164) [DRSC16490]	3139
GABA-B-R3 (GeneID 33248) [DRSC00561]	6166
CG33272 (GeneID 2768958) [DRSC09116]	4590
CG32548 (GeneID 32826) [DRSC19627]	7511
CG32548 (GeneID 32826) [DRSC19982]	5273
CG10931 (GeneID 37024) [DRSC06015]	5414
CG16964 (GeneID 34605) [DRSC02546]	3778

Next results:
Gene	dsRNA	E2F firefly, rep 1	Renilla normaliser, rep 1
Pgant4 (GeneID 261610)	DRSC00717	1.67e5	4760
Tom70 (GeneID 34618)	DRSC02990	1.02e5	4166
Sod3 (GeneID 36232)	DRSC07324	176	39
Nedd8 (GeneID 35151)	DRSC02092	96028	4873
CG42562 (GeneID 37008)	DRSC06453	1.35e5	3996
CG15452 (GeneID 33061)	DRSC20523	1.38e5	6138
CG6168 (GeneID 39273)	DRSC10596	1.40e5	7335
Lim1 (GeneID 31813)	DRSC17752	8276	756
Lim1 (GeneID 31813)	DRSC18677	98501	4782
CG15717 (GeneID 32262)	DRSC19684	1.06e5	6426
CG13659 (GeneID 43059)	DRSC14660	1.23e5	6366
Smyd4-4 (GeneID 36299)	DRSC05956	169	37
CG42286 (retired record) (GeneID 41002)	DRSC14357	1.18e5	6335
Exd2 (GeneID 41374)	DRSC16105	1.38e5	6392
CG15912 (GeneID 31385)	DRSC18105	51247	3927
Tsp42Eq (GeneID 35628)	DRSC06180	1.56e5	5166
ssp3 (GeneID 35149)	DRSC02669	1.06e5	4975
ssp3 (GeneID 35149)	DRSC02670	1.02e5	3989
CG4660 (GeneID 31542)	DRSC18378	1.11e5	5648
Cyp310a1 (GeneID 35115)	DRSC03301	83082	4177
